Article PMC3762332
For at least one entry, the source does not settle the construct or the ends of the probe. For some of these results: Protein sequences can lack the tags named with them.

Chains of the proteins cited; added tags and fusions are not shown. Lines headed by an entry give the natural chain unless they say otherwise; changes in a name come on top.
UniProt O00716: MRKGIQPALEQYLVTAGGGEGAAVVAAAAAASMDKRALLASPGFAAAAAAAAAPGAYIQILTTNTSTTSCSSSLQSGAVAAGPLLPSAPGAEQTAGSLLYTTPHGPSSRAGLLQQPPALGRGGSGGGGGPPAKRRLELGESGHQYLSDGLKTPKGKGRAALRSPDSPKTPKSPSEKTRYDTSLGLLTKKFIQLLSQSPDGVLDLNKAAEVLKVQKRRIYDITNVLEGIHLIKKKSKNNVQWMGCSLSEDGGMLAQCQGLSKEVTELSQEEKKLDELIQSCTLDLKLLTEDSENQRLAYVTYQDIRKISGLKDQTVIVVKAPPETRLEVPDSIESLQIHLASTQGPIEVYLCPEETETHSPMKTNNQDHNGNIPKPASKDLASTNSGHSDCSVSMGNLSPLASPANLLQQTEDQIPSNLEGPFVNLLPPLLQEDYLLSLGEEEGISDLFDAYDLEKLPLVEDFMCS
UniProt P43694: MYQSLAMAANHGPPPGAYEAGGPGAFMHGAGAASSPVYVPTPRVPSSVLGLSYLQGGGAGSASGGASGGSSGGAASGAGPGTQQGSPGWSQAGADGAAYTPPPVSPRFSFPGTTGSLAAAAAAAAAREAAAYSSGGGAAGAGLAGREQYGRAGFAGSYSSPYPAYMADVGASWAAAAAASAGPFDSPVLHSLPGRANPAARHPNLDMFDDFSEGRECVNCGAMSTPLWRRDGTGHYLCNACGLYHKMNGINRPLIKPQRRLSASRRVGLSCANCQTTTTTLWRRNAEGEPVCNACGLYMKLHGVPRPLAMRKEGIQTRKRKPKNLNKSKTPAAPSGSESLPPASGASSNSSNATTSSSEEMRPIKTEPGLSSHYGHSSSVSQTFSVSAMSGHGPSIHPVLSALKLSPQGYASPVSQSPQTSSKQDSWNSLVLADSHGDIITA
UniProt P20719: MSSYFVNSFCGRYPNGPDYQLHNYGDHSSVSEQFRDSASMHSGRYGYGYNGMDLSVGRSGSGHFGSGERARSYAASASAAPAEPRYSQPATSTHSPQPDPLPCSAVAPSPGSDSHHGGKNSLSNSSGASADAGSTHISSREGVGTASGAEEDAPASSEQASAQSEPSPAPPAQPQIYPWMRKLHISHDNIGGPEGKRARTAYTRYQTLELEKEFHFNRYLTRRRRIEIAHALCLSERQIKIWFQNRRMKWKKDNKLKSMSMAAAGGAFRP
UniProt P37231: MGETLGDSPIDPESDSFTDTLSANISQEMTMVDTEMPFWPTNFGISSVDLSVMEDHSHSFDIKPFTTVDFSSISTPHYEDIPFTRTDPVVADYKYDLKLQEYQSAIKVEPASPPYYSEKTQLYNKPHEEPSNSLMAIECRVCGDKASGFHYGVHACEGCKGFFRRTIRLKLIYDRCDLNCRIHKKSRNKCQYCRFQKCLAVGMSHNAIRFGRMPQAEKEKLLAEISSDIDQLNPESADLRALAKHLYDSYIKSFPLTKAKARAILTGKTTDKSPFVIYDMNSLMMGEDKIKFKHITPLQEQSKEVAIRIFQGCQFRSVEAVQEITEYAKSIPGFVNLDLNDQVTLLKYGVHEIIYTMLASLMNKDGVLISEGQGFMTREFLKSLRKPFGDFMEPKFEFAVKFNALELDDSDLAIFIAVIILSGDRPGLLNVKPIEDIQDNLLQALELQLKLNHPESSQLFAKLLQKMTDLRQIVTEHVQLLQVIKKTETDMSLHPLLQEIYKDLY
UniProt P19793: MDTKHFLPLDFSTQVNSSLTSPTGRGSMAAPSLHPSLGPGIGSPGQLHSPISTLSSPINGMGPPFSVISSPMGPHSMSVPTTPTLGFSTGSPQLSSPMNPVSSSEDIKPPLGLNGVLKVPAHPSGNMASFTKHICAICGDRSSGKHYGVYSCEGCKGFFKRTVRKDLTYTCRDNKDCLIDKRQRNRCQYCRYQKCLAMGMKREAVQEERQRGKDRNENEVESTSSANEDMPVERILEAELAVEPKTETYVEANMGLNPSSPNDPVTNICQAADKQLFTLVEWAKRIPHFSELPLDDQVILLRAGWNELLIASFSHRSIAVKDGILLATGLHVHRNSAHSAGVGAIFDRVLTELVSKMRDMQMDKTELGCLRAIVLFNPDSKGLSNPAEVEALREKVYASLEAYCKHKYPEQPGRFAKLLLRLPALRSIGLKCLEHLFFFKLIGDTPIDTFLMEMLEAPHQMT
UniProt Q8NC26: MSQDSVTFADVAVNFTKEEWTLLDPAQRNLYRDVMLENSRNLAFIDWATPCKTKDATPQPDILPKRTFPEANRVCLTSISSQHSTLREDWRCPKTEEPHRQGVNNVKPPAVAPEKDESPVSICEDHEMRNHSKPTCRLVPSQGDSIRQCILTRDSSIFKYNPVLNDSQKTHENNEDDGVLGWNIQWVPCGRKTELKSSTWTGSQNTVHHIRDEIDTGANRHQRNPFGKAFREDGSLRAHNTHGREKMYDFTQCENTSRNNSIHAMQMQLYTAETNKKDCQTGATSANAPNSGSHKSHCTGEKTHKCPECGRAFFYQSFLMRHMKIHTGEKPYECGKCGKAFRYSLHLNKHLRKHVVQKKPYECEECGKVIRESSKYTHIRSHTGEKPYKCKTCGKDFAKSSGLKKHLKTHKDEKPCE
UniProt Q9BWM5: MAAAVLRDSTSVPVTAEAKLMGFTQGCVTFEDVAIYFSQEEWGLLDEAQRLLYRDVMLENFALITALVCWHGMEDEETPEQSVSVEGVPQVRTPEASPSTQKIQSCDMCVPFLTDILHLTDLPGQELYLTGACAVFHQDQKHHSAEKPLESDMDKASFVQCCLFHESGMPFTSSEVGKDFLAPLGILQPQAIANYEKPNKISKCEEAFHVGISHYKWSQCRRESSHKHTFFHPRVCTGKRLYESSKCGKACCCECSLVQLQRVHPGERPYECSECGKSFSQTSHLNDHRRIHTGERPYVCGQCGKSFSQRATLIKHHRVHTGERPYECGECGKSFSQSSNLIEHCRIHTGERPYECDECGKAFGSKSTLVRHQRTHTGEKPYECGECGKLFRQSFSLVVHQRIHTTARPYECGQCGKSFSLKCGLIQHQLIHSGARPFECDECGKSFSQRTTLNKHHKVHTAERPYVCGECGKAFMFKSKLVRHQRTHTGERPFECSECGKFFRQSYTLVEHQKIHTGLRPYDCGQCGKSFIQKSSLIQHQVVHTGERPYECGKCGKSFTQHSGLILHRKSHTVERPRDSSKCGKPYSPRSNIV
UniProt Q8IW36: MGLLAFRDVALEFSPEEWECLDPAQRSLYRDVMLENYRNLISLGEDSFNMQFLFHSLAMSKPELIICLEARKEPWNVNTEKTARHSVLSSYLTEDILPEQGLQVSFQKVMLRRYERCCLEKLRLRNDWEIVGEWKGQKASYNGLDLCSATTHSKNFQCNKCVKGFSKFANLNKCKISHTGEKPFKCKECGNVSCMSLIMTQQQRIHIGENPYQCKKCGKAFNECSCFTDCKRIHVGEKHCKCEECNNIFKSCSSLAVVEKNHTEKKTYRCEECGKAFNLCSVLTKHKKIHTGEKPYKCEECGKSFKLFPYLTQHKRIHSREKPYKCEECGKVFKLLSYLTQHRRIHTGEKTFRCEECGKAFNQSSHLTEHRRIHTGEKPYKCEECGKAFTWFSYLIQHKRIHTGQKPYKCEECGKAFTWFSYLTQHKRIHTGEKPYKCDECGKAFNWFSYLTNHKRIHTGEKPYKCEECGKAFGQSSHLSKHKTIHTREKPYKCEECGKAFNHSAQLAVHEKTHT

Tests used:
Test in all cases: protein microarray
Conditions in all cases: 10-fold cold unmethylated competitor; 5mC at CpG (SssI, both strands); recombinant protein; protein details: GST (N-terminal); label: Cy5
E2F3 (Homo sapiens) = E2F3 (Homo sapiens) (UniProt O00716)
GATA4 (Homo sapiens) = GATA4 (Homo sapiens) (UniProt P43694)
HOXA5 (Homo sapiens) = HOXA5 (Homo sapiens) (UniProt P20719)
NRF1 (Homo sapiens) = molecular target: T1, NRF1 (Homo sapiens) (UniProt Q16656)
T1 sequence (looked up, limits assumed): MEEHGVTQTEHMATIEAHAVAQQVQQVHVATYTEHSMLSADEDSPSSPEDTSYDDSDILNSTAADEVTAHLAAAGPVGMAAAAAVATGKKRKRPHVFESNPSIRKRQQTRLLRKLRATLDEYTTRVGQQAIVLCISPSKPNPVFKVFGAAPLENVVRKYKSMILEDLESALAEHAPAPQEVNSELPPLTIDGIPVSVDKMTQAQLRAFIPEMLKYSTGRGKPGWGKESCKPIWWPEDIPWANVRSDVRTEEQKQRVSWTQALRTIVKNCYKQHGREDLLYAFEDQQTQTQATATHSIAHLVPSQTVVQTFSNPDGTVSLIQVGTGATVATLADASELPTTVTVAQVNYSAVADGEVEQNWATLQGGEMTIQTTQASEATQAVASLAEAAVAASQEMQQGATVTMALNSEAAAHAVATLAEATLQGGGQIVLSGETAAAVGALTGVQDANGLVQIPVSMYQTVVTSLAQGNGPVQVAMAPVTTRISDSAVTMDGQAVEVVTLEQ

PPARG (Homo sapiens) = PPARG (Homo sapiens) (UniProt P37231)
RNF138 (Homo sapiens) = molecular target: T2, RNF138 (Homo sapiens) (UniProt Q8WVD3)
T2 sequence (looked up, limits assumed): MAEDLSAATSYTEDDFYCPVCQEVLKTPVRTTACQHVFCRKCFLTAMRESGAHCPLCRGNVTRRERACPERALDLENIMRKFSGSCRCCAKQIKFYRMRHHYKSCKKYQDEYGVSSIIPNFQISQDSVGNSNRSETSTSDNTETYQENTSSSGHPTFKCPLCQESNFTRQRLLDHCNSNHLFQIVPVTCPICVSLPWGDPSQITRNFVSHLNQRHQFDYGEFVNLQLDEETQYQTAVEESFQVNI

RXRA (Homo sapiens) = RXRA (Homo sapiens) (UniProt P19793)
SCAPER (Homo sapiens) = molecular target: T3, SCAPER (Homo sapiens) (UniProt Q9BY12)
T3 sequence (looked up, limits assumed): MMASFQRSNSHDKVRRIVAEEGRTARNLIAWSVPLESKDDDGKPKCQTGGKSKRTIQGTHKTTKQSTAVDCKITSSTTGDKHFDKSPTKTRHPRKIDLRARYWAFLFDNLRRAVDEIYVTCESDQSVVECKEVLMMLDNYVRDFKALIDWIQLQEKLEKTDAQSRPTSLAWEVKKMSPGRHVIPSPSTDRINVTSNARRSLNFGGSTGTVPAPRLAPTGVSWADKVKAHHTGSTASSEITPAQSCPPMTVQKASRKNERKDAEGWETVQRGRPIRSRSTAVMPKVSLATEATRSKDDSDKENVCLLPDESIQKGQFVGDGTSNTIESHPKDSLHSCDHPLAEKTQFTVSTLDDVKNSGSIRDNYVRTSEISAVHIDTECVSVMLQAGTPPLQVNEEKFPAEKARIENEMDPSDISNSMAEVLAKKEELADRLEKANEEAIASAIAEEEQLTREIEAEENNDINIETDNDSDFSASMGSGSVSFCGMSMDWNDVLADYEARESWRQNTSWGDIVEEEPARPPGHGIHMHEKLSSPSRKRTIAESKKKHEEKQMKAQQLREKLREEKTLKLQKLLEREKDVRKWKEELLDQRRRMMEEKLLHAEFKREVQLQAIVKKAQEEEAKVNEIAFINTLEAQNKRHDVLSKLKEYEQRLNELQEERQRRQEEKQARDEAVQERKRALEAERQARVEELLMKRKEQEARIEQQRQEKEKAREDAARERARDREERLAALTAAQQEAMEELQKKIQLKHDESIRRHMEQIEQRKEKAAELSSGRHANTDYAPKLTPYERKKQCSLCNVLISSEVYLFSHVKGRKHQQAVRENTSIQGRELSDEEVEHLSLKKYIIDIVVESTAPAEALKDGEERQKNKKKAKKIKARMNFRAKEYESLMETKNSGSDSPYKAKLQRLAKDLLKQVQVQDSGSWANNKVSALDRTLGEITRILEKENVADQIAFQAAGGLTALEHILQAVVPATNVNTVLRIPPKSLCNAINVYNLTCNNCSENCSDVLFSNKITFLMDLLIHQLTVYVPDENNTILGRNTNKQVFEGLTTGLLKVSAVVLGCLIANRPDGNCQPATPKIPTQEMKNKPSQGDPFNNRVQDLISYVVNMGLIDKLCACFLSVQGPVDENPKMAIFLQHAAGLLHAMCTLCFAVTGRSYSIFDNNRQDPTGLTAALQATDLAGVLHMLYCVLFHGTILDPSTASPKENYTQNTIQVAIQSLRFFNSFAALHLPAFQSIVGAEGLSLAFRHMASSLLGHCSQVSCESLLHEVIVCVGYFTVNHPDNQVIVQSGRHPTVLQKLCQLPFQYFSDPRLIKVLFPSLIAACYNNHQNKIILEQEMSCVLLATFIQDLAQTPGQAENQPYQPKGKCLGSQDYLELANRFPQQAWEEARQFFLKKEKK

ZCCHC7 (Homo sapiens) = molecular target: T4, ZCCHC7 (Homo sapiens) (UniProt Q8N3Z6)
T4 sequence (looked up, limits assumed): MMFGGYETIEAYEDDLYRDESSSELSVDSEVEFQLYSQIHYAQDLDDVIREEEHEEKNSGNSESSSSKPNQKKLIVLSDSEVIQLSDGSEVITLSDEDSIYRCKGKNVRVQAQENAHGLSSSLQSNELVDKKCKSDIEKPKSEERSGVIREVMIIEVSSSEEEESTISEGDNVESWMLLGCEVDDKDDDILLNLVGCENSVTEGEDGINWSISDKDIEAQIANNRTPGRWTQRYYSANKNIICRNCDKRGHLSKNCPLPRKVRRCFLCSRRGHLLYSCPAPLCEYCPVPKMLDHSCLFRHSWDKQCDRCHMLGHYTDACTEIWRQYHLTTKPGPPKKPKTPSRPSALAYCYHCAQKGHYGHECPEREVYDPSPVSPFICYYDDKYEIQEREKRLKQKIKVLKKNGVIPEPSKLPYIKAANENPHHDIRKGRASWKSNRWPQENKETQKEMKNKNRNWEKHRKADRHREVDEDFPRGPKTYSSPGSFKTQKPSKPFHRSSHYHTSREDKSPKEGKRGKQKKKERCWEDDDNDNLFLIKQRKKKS

ZNF114 (Homo sapiens) = ZNF114 (Homo sapiens) (UniProt Q8NC26)
ZNF416 (Homo sapiens) = ZNF416 (Homo sapiens) (UniProt Q9BWM5)
ZNF695 (Homo sapiens) = ZNF695 (Homo sapiens) (UniProt Q8IW36)

Measured: binding result

GTATCGGAAAAGTATCGGACCCTATAGTGAGTGCTATTA (double strand) [M450]
binds: E2F3 (Homo sapiens) | GATA4 (Homo sapiens) | HOXA5 (Homo sapiens) | NRF1 (Homo sapiens) | PPARG (Homo sapiens) | RNF138 (Homo sapiens) | RXRA (Homo sapiens) | SCAPER (Homo sapiens) | ZCCHC7 (Homo sapiens) | ZNF114 (Homo sapiens) | ZNF416 (Homo sapiens)

GCGTGGAATTTGCGTGGAACCCTATAGTGAGTGCTATTA (double strand) [M448]
binds: E2F3 (Homo sapiens) | GATA4 (Homo sapiens) | HOXA5 (Homo sapiens) | NRF1 (Homo sapiens) | PPARG (Homo sapiens) | RNF138 (Homo sapiens) | RXRA (Homo sapiens) | SCAPER (Homo sapiens) | ZCCHC7 (Homo sapiens) | ZNF114 (Homo sapiens) | ZNF416 (Homo sapiens)

CTTCCGCAAACTTCCGCCCCTATAGTGAGTGCTATTA (double strand) [M70]
binds: E2F3 (Homo sapiens) | GATA4 (Homo sapiens) | HOXA5 (Homo sapiens) | NRF1 (Homo sapiens) | PPARG (Homo sapiens) | RNF138 (Homo sapiens) | RXRA (Homo sapiens) | SCAPER (Homo sapiens) | ZCCHC7 (Homo sapiens) | ZNF114 (Homo sapiens) | ZNF416 (Homo sapiens)

ACGGAGTAAAAACGGAGTACCCTATAGTGAGTGCTATTA (double strand) [M455]
binds: E2F3 (Homo sapiens) | GATA4 (Homo sapiens) | HOXA5 (Homo sapiens) | NRF1 (Homo sapiens) | PPARG (Homo sapiens) | RNF138 (Homo sapiens) | SCAPER (Homo sapiens) | ZCCHC7 (Homo sapiens) | ZNF114 (Homo sapiens) | ZNF416 (Homo sapiens)

AGCGGCGAAAAGCGGCGCCCTATAGTGAGTGCTATTA (double strand) [M291]
binds: E2F3 (Homo sapiens) | NRF1 (Homo sapiens) | SCAPER (Homo sapiens) | ZNF416 (Homo sapiens) | ZNF695 (Homo sapiens)

CCTCGGCCGCCCCCTCGCGGCAAACCTCGGCCGCCCCCTCGCGGCCCCTATAGTGAGTGCTATTA (double strand) [M30]
binds: E2F3 (Homo sapiens) | GATA4 (Homo sapiens) | NRF1 (Homo sapiens) | RXRA (Homo sapiens) | SCAPER (Homo sapiens) | ZCCHC7 (Homo sapiens) | ZNF114 (Homo sapiens) | ZNF416 (Homo sapiens)

ATGGCGGCAAAATGGCGGCCCCTATAGTGAGTGCTATTA (double strand) [M78]
binds: E2F3 (Homo sapiens) | GATA4 (Homo sapiens) | HOXA5 (Homo sapiens) | NRF1 (Homo sapiens) | PPARG (Homo sapiens) | RNF138 (Homo sapiens) | RXRA (Homo sapiens) | SCAPER (Homo sapiens) | ZCCHC7 (Homo sapiens) | ZNF114 (Homo sapiens) | ZNF416 (Homo sapiens)
